The other results are listed elsewhere or left out.
Compound: CC1Cc2ccccc2N1C(=O)C1CCCN(C1)C(=O)CCl (mixture of isomers) [TRIM25 ligand 11 (diastereomer mixture)]
Test: probe-labelled cysteine peptide fold change vs DMSO (competition) (log2 fold change); higher = less target engagement (more negative = stronger competition)
Details: THP-1, incubation time: 4 h
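Further: competitive chemoproteomic profiling in live THP-1 cells with an iodoacetamide desthiobiotin (IA-DTB) probe, comparing probe-labelled peptide intensities in compound-treated cells against DMSO-treated controls.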

Amino acid sequences for entries named in this document (tags omitted). A change or cut given only in a name is not applied to a line headed by its entry.
UniProt Q04726: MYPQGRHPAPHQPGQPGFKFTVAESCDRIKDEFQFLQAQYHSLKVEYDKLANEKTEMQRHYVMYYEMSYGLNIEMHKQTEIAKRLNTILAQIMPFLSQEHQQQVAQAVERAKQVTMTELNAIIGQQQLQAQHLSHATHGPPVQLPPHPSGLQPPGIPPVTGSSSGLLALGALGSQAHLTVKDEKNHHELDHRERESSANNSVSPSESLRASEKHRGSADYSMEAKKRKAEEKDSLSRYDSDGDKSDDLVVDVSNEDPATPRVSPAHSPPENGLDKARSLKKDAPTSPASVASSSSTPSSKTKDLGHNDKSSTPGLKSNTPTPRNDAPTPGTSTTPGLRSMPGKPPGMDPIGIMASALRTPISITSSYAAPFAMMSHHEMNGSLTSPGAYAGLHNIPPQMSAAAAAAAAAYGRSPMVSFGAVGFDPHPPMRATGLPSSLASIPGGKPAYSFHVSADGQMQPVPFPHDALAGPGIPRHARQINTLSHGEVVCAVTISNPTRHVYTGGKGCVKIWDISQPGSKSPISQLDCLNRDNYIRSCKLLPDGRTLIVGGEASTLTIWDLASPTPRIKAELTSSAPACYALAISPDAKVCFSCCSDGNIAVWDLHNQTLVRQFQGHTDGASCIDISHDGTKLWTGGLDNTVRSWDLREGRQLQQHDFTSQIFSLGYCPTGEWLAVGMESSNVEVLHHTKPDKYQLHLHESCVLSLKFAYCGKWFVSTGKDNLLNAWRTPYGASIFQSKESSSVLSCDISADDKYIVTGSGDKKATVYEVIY
UniProt Q5TEJ8: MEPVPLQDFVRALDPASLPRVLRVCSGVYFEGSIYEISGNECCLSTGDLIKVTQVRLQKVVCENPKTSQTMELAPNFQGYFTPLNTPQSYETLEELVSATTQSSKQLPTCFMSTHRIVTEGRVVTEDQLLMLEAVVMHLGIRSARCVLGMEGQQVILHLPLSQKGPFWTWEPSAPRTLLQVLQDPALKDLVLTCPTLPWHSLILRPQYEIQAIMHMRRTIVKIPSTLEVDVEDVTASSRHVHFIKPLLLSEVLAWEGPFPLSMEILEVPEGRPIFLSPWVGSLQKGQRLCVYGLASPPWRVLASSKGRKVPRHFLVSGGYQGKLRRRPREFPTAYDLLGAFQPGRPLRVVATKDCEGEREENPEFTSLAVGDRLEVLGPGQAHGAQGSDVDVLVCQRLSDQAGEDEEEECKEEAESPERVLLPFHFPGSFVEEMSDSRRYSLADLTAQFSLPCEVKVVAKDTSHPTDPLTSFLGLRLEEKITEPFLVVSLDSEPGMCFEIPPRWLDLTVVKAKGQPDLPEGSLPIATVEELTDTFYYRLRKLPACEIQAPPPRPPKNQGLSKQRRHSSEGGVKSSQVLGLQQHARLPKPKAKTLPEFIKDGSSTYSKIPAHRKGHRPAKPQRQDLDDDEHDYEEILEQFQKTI
UniProt Q9UNS1: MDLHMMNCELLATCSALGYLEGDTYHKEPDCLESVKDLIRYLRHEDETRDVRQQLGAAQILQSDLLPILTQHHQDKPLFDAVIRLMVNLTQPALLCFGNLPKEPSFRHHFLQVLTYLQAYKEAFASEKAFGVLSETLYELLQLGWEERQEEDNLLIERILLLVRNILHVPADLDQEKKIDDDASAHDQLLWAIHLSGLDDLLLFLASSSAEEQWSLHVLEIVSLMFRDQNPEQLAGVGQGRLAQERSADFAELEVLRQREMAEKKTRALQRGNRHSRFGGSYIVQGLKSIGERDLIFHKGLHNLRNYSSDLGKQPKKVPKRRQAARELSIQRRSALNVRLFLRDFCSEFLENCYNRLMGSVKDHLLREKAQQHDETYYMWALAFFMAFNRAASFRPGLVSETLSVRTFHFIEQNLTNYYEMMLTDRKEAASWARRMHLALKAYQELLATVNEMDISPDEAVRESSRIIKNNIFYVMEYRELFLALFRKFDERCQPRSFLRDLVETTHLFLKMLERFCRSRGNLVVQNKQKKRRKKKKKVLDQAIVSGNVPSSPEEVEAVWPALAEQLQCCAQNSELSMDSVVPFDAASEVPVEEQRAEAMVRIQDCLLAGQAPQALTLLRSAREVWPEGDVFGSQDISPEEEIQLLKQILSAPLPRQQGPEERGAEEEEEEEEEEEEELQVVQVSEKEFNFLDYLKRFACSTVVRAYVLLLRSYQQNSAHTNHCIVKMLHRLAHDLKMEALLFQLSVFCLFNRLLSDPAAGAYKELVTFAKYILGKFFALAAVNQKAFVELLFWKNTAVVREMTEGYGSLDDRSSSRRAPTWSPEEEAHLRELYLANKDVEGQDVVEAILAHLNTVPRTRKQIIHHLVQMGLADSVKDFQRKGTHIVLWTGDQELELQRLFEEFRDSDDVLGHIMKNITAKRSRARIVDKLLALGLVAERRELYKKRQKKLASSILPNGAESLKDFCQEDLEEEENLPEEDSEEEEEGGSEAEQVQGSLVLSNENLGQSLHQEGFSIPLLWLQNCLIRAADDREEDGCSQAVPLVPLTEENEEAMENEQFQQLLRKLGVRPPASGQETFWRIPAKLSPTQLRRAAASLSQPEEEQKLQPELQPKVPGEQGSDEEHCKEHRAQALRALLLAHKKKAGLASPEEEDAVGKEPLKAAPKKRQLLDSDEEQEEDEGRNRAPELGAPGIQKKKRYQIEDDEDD
UniProt Q86W42: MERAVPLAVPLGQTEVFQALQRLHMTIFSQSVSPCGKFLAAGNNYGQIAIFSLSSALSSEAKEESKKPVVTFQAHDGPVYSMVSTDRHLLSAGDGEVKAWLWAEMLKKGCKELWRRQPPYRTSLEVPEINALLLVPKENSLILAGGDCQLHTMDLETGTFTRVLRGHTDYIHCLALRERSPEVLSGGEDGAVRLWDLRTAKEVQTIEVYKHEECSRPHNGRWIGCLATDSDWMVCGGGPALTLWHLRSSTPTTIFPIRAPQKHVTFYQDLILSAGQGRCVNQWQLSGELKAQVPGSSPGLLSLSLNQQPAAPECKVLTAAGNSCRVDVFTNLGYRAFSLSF
UniProt P17987, whole entry, looked up: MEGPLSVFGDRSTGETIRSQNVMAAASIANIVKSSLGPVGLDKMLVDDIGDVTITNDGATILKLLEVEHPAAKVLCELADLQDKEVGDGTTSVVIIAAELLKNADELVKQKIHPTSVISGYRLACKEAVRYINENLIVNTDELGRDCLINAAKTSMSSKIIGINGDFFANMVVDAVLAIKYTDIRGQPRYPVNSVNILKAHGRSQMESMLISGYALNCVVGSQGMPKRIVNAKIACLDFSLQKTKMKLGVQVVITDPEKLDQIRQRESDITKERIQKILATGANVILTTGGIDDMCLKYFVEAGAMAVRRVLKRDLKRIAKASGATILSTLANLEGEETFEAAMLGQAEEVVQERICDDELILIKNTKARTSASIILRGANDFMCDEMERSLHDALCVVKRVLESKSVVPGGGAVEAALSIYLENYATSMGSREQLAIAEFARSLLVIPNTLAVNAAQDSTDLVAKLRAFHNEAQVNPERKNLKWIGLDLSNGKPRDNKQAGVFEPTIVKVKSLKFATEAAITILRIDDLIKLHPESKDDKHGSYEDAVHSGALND
UniProt Q9Y5J9: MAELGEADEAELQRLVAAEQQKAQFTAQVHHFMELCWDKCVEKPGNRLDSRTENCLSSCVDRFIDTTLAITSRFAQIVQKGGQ
UniProt O14776: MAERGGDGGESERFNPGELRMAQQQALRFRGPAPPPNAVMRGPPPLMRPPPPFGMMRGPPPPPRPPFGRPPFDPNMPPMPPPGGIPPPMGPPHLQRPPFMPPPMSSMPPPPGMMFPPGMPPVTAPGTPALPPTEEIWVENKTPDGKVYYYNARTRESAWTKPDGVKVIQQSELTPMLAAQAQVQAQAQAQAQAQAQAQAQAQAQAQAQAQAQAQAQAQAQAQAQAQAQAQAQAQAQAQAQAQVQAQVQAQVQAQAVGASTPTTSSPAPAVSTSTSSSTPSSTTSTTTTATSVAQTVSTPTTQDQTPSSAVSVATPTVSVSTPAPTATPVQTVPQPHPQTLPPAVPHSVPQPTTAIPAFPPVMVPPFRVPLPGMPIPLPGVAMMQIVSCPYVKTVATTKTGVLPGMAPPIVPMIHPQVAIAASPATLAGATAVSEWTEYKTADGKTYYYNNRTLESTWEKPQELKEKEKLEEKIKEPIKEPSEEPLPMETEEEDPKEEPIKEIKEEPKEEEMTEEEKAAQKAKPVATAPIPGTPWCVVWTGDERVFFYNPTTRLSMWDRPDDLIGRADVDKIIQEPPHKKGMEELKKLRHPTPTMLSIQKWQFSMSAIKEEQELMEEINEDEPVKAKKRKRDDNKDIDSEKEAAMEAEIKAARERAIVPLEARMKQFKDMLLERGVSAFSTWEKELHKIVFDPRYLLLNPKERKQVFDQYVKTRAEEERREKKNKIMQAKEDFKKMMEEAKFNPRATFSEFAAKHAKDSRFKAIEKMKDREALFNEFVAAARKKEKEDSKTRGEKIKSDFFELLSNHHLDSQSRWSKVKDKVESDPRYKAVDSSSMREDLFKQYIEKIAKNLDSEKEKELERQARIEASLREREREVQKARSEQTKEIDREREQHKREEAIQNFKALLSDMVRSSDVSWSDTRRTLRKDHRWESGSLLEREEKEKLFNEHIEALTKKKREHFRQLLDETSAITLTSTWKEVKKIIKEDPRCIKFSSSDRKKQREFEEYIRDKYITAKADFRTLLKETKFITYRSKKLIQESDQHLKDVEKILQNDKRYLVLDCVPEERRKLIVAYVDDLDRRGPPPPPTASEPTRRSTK
UniProt Q9BSF4: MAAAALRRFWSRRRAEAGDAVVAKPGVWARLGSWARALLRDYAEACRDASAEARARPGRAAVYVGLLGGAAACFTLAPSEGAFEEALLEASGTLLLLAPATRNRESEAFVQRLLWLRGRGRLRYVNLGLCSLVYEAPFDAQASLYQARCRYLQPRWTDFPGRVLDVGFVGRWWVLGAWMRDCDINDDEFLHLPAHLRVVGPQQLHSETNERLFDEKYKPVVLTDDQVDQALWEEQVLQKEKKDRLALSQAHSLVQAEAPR
UniProt P04183: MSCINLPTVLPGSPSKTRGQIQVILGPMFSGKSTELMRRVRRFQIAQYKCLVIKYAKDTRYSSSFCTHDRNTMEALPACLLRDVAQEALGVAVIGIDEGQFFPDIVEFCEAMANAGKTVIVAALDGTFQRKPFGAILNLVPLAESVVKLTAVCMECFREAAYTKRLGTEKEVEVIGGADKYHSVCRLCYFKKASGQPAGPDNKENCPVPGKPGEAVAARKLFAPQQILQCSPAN
UniProt Q9UGI8: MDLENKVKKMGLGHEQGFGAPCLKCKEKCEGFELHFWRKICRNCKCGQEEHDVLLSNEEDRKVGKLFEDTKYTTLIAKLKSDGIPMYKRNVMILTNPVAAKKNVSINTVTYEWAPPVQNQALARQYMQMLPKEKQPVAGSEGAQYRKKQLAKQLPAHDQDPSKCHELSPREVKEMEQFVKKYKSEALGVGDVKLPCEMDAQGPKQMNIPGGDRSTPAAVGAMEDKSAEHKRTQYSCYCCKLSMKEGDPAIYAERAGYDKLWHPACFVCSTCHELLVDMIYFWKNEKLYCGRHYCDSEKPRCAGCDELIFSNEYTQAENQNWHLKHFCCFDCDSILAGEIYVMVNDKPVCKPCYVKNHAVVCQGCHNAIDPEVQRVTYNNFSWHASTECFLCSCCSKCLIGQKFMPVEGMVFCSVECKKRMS
UniProt P52888, whole entry, looked up: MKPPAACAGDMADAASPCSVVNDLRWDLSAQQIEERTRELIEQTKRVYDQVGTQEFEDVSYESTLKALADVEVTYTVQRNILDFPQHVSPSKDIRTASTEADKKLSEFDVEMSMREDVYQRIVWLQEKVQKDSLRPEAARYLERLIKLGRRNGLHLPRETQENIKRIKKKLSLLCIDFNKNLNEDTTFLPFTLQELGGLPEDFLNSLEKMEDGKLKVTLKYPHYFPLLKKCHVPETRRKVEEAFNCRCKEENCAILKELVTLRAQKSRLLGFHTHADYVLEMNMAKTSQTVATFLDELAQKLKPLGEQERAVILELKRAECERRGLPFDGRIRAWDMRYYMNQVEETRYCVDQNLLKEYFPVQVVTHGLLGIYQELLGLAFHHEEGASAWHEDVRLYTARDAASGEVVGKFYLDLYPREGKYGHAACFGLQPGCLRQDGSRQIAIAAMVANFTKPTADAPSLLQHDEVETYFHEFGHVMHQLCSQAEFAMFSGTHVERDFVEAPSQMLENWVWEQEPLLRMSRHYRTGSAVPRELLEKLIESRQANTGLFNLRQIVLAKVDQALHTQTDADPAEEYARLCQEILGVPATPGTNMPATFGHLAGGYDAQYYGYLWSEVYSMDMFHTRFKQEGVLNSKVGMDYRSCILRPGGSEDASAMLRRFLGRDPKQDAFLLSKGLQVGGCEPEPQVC
UniProt Q5JUR7: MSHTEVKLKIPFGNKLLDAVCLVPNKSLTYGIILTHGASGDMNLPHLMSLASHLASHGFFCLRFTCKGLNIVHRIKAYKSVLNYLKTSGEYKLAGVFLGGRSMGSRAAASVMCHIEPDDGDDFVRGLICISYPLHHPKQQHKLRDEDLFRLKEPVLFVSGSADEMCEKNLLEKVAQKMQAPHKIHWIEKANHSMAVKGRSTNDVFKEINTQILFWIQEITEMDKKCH

Row | Target | probe-labelled cysteine peptide fold change (10 µM) | probe-labelled cysteine peptide fold change (50 µM)
1 | TLE3_Q04726_490_QINTLSHGEVVCAVTISNPTR (UniProt Q04726) | -0.0055 | -0.0265
2 | THEMIS2_Q5TEJ8_453_YSLADLTAQFSLPCEVK (UniProt Q5TEJ8) | -0.0697 | -0.154
3 | THSD7A_Q9UPZ6_1036_CNSHGYIEEACIIPCPSDCK (UniProt Q9UPZ6) | 0.065 | -0.111
4 | TEX264_Q9Y6I9_94_CAVGSILSEGEESPSPELIDLYQK (UniProt Q9Y6I9) | 0.115 | 0.126
5 | TKT_P29401_417_MAAISESNINLCGSHCGVSIGEDGPSQMALEDLAMFR (UniProt P29401) | 0.00553 | -0.379
6 | TLK2_Q86UE8_737_IDVQQLACDPYLLPHIR (UniProt Q86UE8) | -0.0777 | -0.0558
7 | TIMELESS_Q9UNS1_96_LMVNLTQPALLCFGNLPK (UniProt Q9UNS1) | 0.287 | 0.154
8 | THOC6_Q86W42_214_EVQTIEVYKHEECSRPHNGR (UniProt Q86W42) | -0.167 | -0.146
9 | TKFC_Q3LXA3_24_KLVNSVAGCADDALAGLVACNPNLQLLQGHR (UniProt Q3LXA3) | -0.238 | -0.093
10 | TCP1_P17987_357_ICDDELILIK (UniProt P17987) | 0.0589 | -0.0138
11 | THOC1_Q96FV9_604_QIECDSEDMK (UniProt Q96FV9) | -0.0446 | -0.0167
12 | TEX2_Q8IWB9_1030_KIEEVSNTPLLLTVEVQECR (UniProt Q8IWB9) | -0.0986 | 0.155
13 | TKT_P29401_225_RCEAFGWHAIIVDGHSVEELCK (UniProt P29401) | -0.0561 | 0.0425
14 | THOC3_Q96J01_106_GHGDSVDQLCWHPSNPDLFVTASGDK (UniProt Q96J01) | -0.016 | -0.235
15 | TIMM8B_Q9Y5J9_59_TENCLSSCVDR (UniProt Q9Y5J9) | -0.102 | -0.204
16 | TCP1_P17987_397_SLHDALCVVKR (UniProt P17987) | -0.234 | -0.219
17 | TCERG1_O14776_535_AKPVATAPIPGTPWCVVWTGDER (UniProt O14776) | -0.00115 | 0.147

Row | Target | probe-labelled cysteine peptide fold change (10 µM) | probe-labelled cysteine peptide fold change (50 µM)
18 | TIMELESS_Q9UNS1_1126_VPGEQGSDEEHCK (UniProt Q9UNS1) | -0.18 | -0.398
19 | TIMM29_Q9BSF4_130_YVNLGLCSLVYEAPFDAQASLYQAR (UniProt Q9BSF4) | -0.179 | 0.148
20 | TCF20_Q9UGU0_1795_SEDCGGGPR (UniProt Q9UGU0) | -0.0601 | -0.00254
21 | TK1_P04183_79_NTMEALPACLLR (UniProt P04183) | -0.00122 | 0.064
22 | THEMIS2_Q5TEJ8_355_DCEGEREENPEFTSLAVGDR (UniProt Q5TEJ8) | 0.0755 | -0.16
23 | TK1_P04183_66_YSSSFCTHDR (UniProt P04183) | -0.0302 | 0.141
24 | TENT2_Q6PIY7_431_YICVEEPFDGTNTAR (UniProt Q6PIY7) | -0.0904 | -0.0996
25 | TKT_P29401_206+225_CEAFGWHAIIVDGHSVEELCK (UniProt P29401) | 0.0902 | -0.0357
26 | THOC6_Q86W42_324_VLTAAGNSCR (UniProt Q86W42) | -0.0484 | 0.0776
27 | TES_Q9UGI8_361_NHAVVCQGCHNAIDPEVQR (UniProt Q9UGI8) | 0.0247 | -0.00899
28 | THOP1_P52888_427+434_YGHAACFGLQPGCLR (UniProt P52888) | 0.0761 | -0.0391
29 | THOC2_Q8NI27_1111_ASVHCLETGEYTHIR (UniProt Q8NI27) | 0.159 | 0.0514
30 | TEX30_Q5JUR7_166_EPVLFVSGSADEMCEK (UniProt Q5JUR7) | -0.0196 | -0.0328
31 | TCP1_P17987_147_YINENLIVNTDELGRDCLINAAK (UniProt P17987) | -0.0297 | -0.00536
32 | TCP1_P17987_236_IACLDFSLQK (UniProt P17987) | 0.0287 | 0.115
33 | THUMPD3_Q9BV44_391_PSWGLPIDAVQWDICNLPLR (UniProt Q9BV44) | -0.143 | -0.0868

Part of the list above, as labelled records:
TES_Q9UGI8_361_NHAVVCQGCHNAIDPEVQR (UniProt Q9UGI8)
  probe-labelled cysteine peptide fold change (10 µM): 0.0247; probe-labelled cysteine peptide fold change (50 µM): -0.00899
THOP1_P52888_427+434_YGHAACFGLQPGCLR (UniProt P52888)
  probe-labelled cysteine peptide fold change (10 µM): 0.0761; probe-labelled cysteine peptide fold change (50 µM): -0.0391
